Laboratory results from publication PMC2430196, “Antagonist affinity measurements at the Gi-coupled human histamine H3 receptor expressed in CHO cells” (BMC Pharmacology, 2008).

By UniProt entry, the sequences of proteins in these tests, tags left out. Where a name states a change or a piece, a line headed by the entry shows the natural chain unless it says otherwise.
UniProt Q9Y5N1: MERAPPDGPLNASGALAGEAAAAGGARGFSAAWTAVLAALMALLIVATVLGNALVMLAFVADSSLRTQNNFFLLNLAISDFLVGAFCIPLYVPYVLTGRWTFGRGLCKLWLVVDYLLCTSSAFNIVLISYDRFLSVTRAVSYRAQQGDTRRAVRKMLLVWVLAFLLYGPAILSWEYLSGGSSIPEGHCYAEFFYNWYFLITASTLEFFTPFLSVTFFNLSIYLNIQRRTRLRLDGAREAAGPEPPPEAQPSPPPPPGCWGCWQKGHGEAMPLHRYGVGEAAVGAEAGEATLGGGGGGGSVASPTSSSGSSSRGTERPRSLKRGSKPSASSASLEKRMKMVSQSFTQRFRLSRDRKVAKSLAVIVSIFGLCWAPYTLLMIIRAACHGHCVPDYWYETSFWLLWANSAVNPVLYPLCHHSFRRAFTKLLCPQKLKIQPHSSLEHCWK

Tests used:
[1] = target: T1, human histamine H3 receptor (Homo sapiens, UniProt Q9Y5N1); assay: 3H-cAMP accumulation in forskolin-stimulated CHO-H3-SPAP cells; format: cell-based; design: secondarily transfected with the full length human histamine H3 receptor; host or cells: CHO-K1 cells with CRE-SPAP reporter (clonal line CHO-H3-SPAP); conditions: 5 hours incubation with ligand, n = 4
Description: Cells were grown to confluence in 24-well plates. The media was removed and the cells pre-labelled with ^3H-adenine by incubation with 2 μCi/ml ^3H-adenine in serum-free media (0.5 ml per well) for 3 hours. The ^3H-adenine was then removed and the cells washed by the addition then removal of 1 ml serum-free media. […] Forskolin (final concentration of 10 μM) was then added to all but the basal wells and the plates incubated for 30 minutes. The reaction was terminated by the addition of 50 μl concentrated HCl per well and the plates were then frozen. Later, the plates were thawed and ^3H-cAMP separated from other ^3H-nucleotides by sequential Dowex and alumina column chromatography, as previously described.
When the intrinsic efficacy of the antagonist ligands was examined, the antagonists were incubated for 5 hours at 37°C in order to maximise the chance of detecting any changes in ^3H-cAMP accumulation.
Response=Emax×[A]/IC50+[A]

[2] = target: T1, human histamine H3 receptor; assay: CRE-SPAP gene transcription in forskolin-stimulated CHO-H3-SPAP cells; conditions: Log KD values
[3] = target: T1, human histamine H3 receptor; assay: cell-based

intrinsic activity response in 3H-cAMP accumulation [1]: No responses
Kd ([2]; agonist N-α-methylhistamine): 2040 nM
Kd ([2]; agonist R-α-methylhistamine): 1620 nM
Kd ([2]; agonist S-α-methylhistamine): 1820 nM
Kd ([2]; agonist VUF 8430): 5500 nM
Kd ([2]; agonist histamine): 1860 nM
Kd ([2]; agonist imetit): 2040 nM
Kd ([2]; agonist immethridine): 3160 nM
Kd ([2]; agonist impentamine (first component of the response)): 1860 nM
Kd ([2]; agonist proxyfan): 2510 nM
Kd [3]: 1620 nM
Structure (SMILES): CN1CCC[C@@H]1CCO[C@](C)(c1ccccc1)c1ccc(Cl)cc1 [clemastine]
